Earlier results, collected in US20220395539A1, “TRADITIONAL CHINESE MEDICINE COMPOSITION FOR TREATING PSORIASIS, PREPARATION METHOD THEREFOR AND USE THEREOF” (priority 2019, published 2022).
Some of these results come from one statement about several compounds together.

Test system: psoriasis
Conditions: monoclonal antibody drugs for treating psoriasis, counted in the references; cited from earlier work

Adalimumab
proportion of PASI-75 patients: 70%-80%
